In patent publication US20180228811A1, “GDNF INDUCTION FOR THE TREATMENT OF RETINAL DISORDERS” (THE SCHEPENS EYE RESEARCH INSTITUTE, INC., priority 2014, published 2018):

Test system: retinal cell markers
Assay: Immunohistochemical analysis of retina of rhodopsin knockout mice after Compound I suspension
Type: in vivo, mouse
Description: To study photoreceptor rescue by Compound I suspension (60 mg/ml), 2 ul of suspension (n=5) or Vehicle (n=5) were administered intravitreally to 4-week old rhodopsin knockout mice using a beveled glass needle, connected to a Hamilton syringe through polyethylene tubing. During the injection, corneal paracenthesis was performed to reduce intraocular pressure. 10 weeks after the injection, eyes were enucleated and fixed in Davidson solution for histological processing: paraffin embedding and sectioning. Six micron thick sections were cut in the area close to optic nerve head (ONH) and stained with hematoxylin-eosin (H&E) or processed for immunohistochemical analysis (IHC). H&E-stained sections were imaged (Olympus imaging system DP72) and total photoreceptor number was estimated based on the nuclei count in the outer nuclear layer (ONL). Cells were counted in each 100 um retina span starting from optic nerve head on three sections for each eye (five eyes per group). Total photoreceptor number per section was also calculated.
For IHC, sections were deparaffinized, heated (95° C.) in citrate buffer (pH 6.0) for 30 minutes, then blocked and stained with the antibodies for the following antigens. The photoreceptors: Opsin Blue (Millipore), Cone Arrestin (Millipore), Opsin Red/Green (Millipore), Recoverin (Millipore), Rod Outer Membrane 1 (Abnova); Müller glia and astrocytes: Lh×2 (Millipore), Glutamate synthase (Abcam), Glial Fibrillar Acidic Protein (Millipore); bipolar cells: Protein Kinase C alpha (Santa Cruz); ganglion cells: NeuN (Millipore) and GDNF (Santa Cruz).

Question: How did the “expression of cone visual pigments (opsin blue and opsin red/green) or length of outer segments” value (rho-/- retina 10 weeks after treatment) turn out when `COc1cc2c(cc1S(=O)(=O)c1ccc(OCc3ccc(Cl)cc3)cc1)CCN(C)CC2` [Compound I, 7-[4-(4-chloro-benzyloxy)-benzenesulfonyl]-8-methoxy-3-methyl-2,3,4,5-tetrahydro-1H-3-benzazepine] was run?
Answer: The value was “No difference”.

Question: And the recoverin staining (rho-/- retina 10 weeks after treatment, compared to age-matched controls and vehicle-treated retina)?
Answer: Its recoverin staining is “Slightly increased intensity”.

Question: What about the “Muller glia markers (Lhx2, GFAP, GS) and bipolar cell marker PKCa expression” value (rho-/- retina, untreated, vehicle-treated and Compound I treated, 10 weeks after the injection) of the same molecule?
Answer: The value was “expressed at similar level in all groups”.
